For one molecule, binding results are on record in paper PMC3661451.

Assay [1] has as its target RecA (AD-recA fusion, pACT2-recA) (Streptococcus pneumoniae). Nature of the assay: two-hybrid; yeast two-hybrid, GAL1-HIS3 reporter; same diploids; growth on SD-Ura-Leu-His + 1 mM 3AT and + 3 mM 3AT, 26°C, a week.
Assay [2] has as its target ComX (AD-comX fusion, pACT2-comX) (Streptococcus pneumoniae). Nature of the assay: two-hybrid; yeast two-hybrid, GAL1-HIS3 reporter; BD-dprA (pGBDUC2) with AD fusions (pACT2) in diploids; growth on SD-Ura-Leu-His without 3AT, 26°C, up to 7 days.
For assay [3], the target named is RecA (AD-recA fusion, pACT2-recA) (Streptococcus pneumoniae). The assay is described as above.
The target of assay [4] is ComD (AD-comD fusion, pACT2-comD) (Streptococcus pneumoniae). The description is as above.

No constants are given. Whether binding was seen depends on the method and setting. For some of these results: A result given as binding can be weak or reduced; the word gives no strength. Where a sequence is shown, tags or fusion partners need not be part of it.

B1: DprA (BD-dprA fusion, pGBDUC2-dprA) (protein, UniProt Q8DPI7 1-282)
chain: MKITNYEIYKLKKSGLTNQQILKVLEYGENVDQELLLGDIADISGCRNPAVFMERYFQIDDAHLSKEFQKFPSFSILDDCYPWDLSEIYDAPVLLFYKGNLDLLKFPKVAVVGSRACSKQGAKSVEKVIQGLENELVIVSGLAKGIDTAAHMAALQNGGKTIAVIGTGLDVFYPKANKRLQDYIGNDHLVLSEYGPGEQPLKFHFPARNRIIAGLCRGVIVAEAKMRSGSLITCERAMEEGRDVFAIPGSILDGLSDGCHHLIQEGAKLVTSGQDVLAEFEF
On to B1, for which the binding result was “no binding (only with 1 mM or 3 mM 3AT)” in assay [1], “no binding” in assay [2], “binds” in assay [3] and “no binding” in assay [4].
